The list does not hold the whole screen: it gathers tests that were run many times, whatever their T/C, doses with no T/C, and many T/C values between a quarter and a half above the control. Further doses and runs are listed elsewhere. T/C is the treated group as % of the vehicle group. Some entries give survivors of the animals treated and no T/C: the source files T/C as zero there, which appears to mark a toxic dose or a test without result, not a measured value. Some doses without a T/C left all or most animals alive at the check, yet need not have been tolerated: the source hardly ever lists a survival T/C far under the control, and the zero likely stands for such cases as well. Survivors were counted at the toxicity check, usually on the fifth day, unless a day is given; later deaths do not show. Schedules are NCI's codes, read here as Q, the interval in days (D) or hours (H), X, the number of doses. Some doses were run more than once; the results are listed from low to high. For survival time, the PubChem record calls one and a half times the control and up active, and a quarter to a half above the control has no call in these data; cut-offs in other NCI protocols can differ. Some T/C values are followed by the survivors on the day toxicity was checked, most often the fifth; where none is given, no animal had died by that day.
System: B6C3F1 mice, Lewis lung carcinoma iv, survival T/C
Assay: NCI In Vivo Anticancer Drug Screen. Data for tumor model Lewis Lung Carcinoma (intravenous) in B6C3F1 mice
Conditions: T/C endpoint: median survival time, higher T/C = longer survival
Description: The antitumor activity of compounds was measured in mice bearing transplantable tumors. Survival or tumor size were measured and the results are expressed as the measurement made in the treated group (T) divided by the measurement made in the vehicle treated control group (C). The tumor model used in this assay is Lewis Lung Carcinoma (intravenous) in B6C3F1 mice

[1] = dose: 100.0 mg/kg/injection, schedule: Q01DX009 (ip), vehicle: saline with Tween-80
[2] = dose: 200.0 mg/kg/injection, schedule: Q01DX009 (ip), vehicle: saline with Tween-80
[3] = dose: 400.0 mg/kg/injection, schedule: Q01DX009 (ip), vehicle: saline with Tween-80
[4] = dose: 50.0 mg/kg/injection, schedule: Q01DX009 (ip), vehicle: saline
[5] = dose: 2.0 mg/kg/injection, schedule: Q01DX009 (ip), vehicle: saline
[6] = dose: 4.0 mg/kg/injection, schedule: Q01DX009 (ip), vehicle: saline
[7] = dose: 50.0 mg/kg/injection, schedule: Q01DX009 (ip), vehicle: saline with Tween-80
[8] = dose: 40.0 mg/kg/injection, schedule: Q01DX009 (ip), vehicle: saline

CCS/C(SC)=C(/c1ccccc1)[P+](c1ccccc1)(c1ccccc1)c1ccccc1
survivor count (dose: 3.0 mg/kg/injection, schedule: Q01DX009 (ip), vehicle: Klucel (hydroxypropylcellulose) (HPC)): 7 of 10 | survivor count (dose: 6.0 mg/kg/injection, schedule: Q01DX009 (ip), vehicle: Klucel (hydroxypropylcellulose) (HPC)): 1 of 10 | survivor count (dose: 12.0 mg/kg/injection, schedule: Q01DX009 (ip), vehicle: Klucel (hydroxypropylcellulose) (HPC)): 0 of 10 | survivor count (dose: 24.0 mg/kg/injection, schedule: Q01DX009 (ip), vehicle: Klucel (hydroxypropylcellulose) (HPC)): 0 of 10

COC1CC(C)C(OC)C2=CC(=O)C=C(NC(=O)/C(C)=C/C=C\C(C)C(OC(N)=O)/C(C)=C\C(C)C1OC)C2=O (centres undefined)
survivor count (dose: 20.0 mg/kg/injection, schedule: Q01DX009 (ip), vehicle: saline + Tween-80 + alcohol): 3 of 10

O=c1n[n+]([O-])ccn1C1OC(CO)C(O)C1O (centres undefined)
T/C (dose: 200.0 mg/kg/injection, schedule: Q01DX009 (ip), vehicle: saline): 127 % of control | survivor count (dose: 600.0 mg/kg/injection, schedule: Q01DX009 (ip), vehicle: saline): 5 of 10

CCN(CC)CCNc1ccc(C)c2sc3ccc(O)cc3c(=O)c12
survivor count [1]: 10 of 10 | survivor count [2]: 6 of 10

Nc1nc2c(C(=O)N3CCCC3)nnn2c2ccccc12
survivor count [2]: 0 of 10

c1ccc2sc(SSN3CC4CCC(CC4)C3)nc2c1
survivor count [3]: 1 of 10

Cc1ccc2c(ccc(/C=C/c3ccc(O)c4ncccc34)[n+]2C)c1
survivor count [4]: 10 of 10

CCCCCCCCCCCCCCC/C([O-])=N/[N+](C)(C)CC(C)O (centres undefined)
survivor count (dose: 400.0 mg/kg/injection, schedule: Q01DX001 (ip), vehicle: saline): 10 of 10 | survivor count (dose: 800.0 mg/kg/injection, schedule: Q01DX001 (ip), vehicle: saline): 7 of 10

COC(=O)C[C@](O)(CCC(C)(C)O)C(=O)O[C@@H]1C(OC)=C[C@]23CCCN2CCc2cc4c(cc2[C@H]13)OCO4
T/C [5]: 125 % of control [9 of 10 alive] | survivor count [5]: 10 of 10 | survivor count [6]: 0 of 10 and 9 of 10

CNC(=O)OCc1c(COC(=O)NC)c(-c2ccc(Cl)c(Cl)c2)n2c1Cc1ccccc1C2
survivor count (dose: 100.0 mg/kg/injection, schedule: Q01DX009 (ip), vehicle: distilled water + Tween-80): 9 of 10 and 10 of 10 | survivor count (dose: 200.0 mg/kg/injection, schedule: Q01DX009 (ip), vehicle: distilled water + Tween-80): 10 of 10 | survivor count (dose: 400.0 mg/kg/injection, schedule: Q01DX009 (ip), vehicle: distilled water + Tween-80): 9 of 10

CC1=CC(=Nc2ccc(N(CCCl)CCCl)cc2)C=C(C)C1=O
survivor count [7]: 10 of 10 | survivor count [1]: 10 of 10 | survivor count [2]: 6 of 10

Cc1cc2nc3c(=O)[nH]c(=O)nc-3n(CC(O)C(O)C(O)C(O)CO)c2cc1C (centres undefined)
survivor count (dose: 400.0 mg/kg/injection, schedule: Q01DX009 (ip), vehicle: suspension in saline): 8 of 10 | survivor count (dose: 800.0 mg/kg/injection, schedule: Q01DX009 (ip), vehicle: suspension in saline): 5 of 10

C/C(=N\N=C(/[Se])N1CC2CCC(CC2)C1)c1ccccn1
survivor count (dose: 12.5 mg/kg/injection, schedule: Q01DX009 (ip), vehicle: Klucel (hydroxypropylcellulose) (HPC)): 10 of 10 | survivor count (dose: 25.0 mg/kg/injection, schedule: Q01DX009 (ip), vehicle: Klucel (hydroxypropylcellulose) (HPC)): 9 of 10

OCCN1CCN(CC/C=C2/c3ccccc3Sc3ccc(Cl)cc32)CC1
survivor count [4]: 4 of 10

c1ccc([P+](c2ccccc2)(c2ccccc2)c2ccccc2)cc1
survivor count (dose: 12.0 mg/kg/injection, schedule: Q01DX009 (ip), vehicle: saline): 10 of 10

O=NN(CCF)C(=O)NC1CCC(=O)NC1=O (centres undefined)
T/C (dose: 5.0 mg/kg/injection, schedule: Q01DX009 (ip), vehicle: saline): 128 % of control | survivor count [8]: 7 of 10 on day 9

O=C1NC(=O)C2C3C=CC(C12)C1C2C(=O)NC(=O)C2C31 (centres undefined)
T/C [7]: 131 % of control | survivor count [1]: 10 of 10 | survivor count [2]: 9 of 10 | survivor count [3]: 0 of 10 and 3 of 10

COc1cc2c(c(OC)c1OC)-c1ccc(OC)c(=O)cc1[C@@H](NC(C)=O)CC2
survivor count (dose: 1.56 mg/kg/injection, schedule: Q01DX009 (ip), vehicle: saline): 2 of 10 | survivor count (dose: 1.57 mg/kg/injection, schedule: Q01DX009 (ip), vehicle: saline): 2 of 10 | survivor count (dose: 3.13 mg/kg/injection, schedule: Q01DX009 (ip), vehicle: saline): 0 of 10 | survivor count (dose: 6.25 mg/kg/injection, schedule: Q01DX009 (ip), vehicle: saline): 0 of 10 | survivor count (dose: 12.5 mg/kg/injection, schedule: Q01DX009 (ip), vehicle: saline): 0 of 10 | survivor count (dose: 25.0 mg/kg/injection, schedule: Q01DX009 (ip), vehicle: saline): 0 of 10 | survivor count [4]: 0 of 10

Nc1nc(=S)c2[nH]cnc2[nH]1
T/C (dose: 0.25 mg/kg/injection, schedule: Q01DX009 (ip), vehicle: saline): 128 % of control | T/C (dose: 1.0 mg/kg/injection, schedule: Q01DX009 (ip), vehicle: saline): 137 % of control | survivor count [6]: 10 of 10

COc1cccc2c1C(=O)c1c(O)c3c(c(O)c1C2=O)CC(O)(/C(C)=N/NC(=O)CCC(=O)N/N=C(\C)C1(O)Cc2c(O)c4c(c(O)c2C(OC2CC(N)C(O)C(C)O2)C1)C(=O)c1c(OC)cccc1C4=O)CC3OC1CC(N)C(O)C(C)O1 (centres undefined)
T/C (dose: 3.0 mg/kg/injection, schedule: Q01DX009 (ip), vehicle: water): 125 % of control [9 of 10 alive] | survivor count (dose: 24.0 mg/kg/injection, schedule: Q01DX009 (ip), vehicle: water): 10 of 10

CN(C)CCN1C(=O)c2cccc3cc([N+](=O)[O-])cc(c23)C1=O
survivor count (dose: 12.0 mg/kg/injection, schedule: Q01DX009 (ip), vehicle: saline with Tween-80): 9 of 10 | survivor count (dose: 24.0 mg/kg/injection, schedule: Q01DX009 (ip), vehicle: saline with Tween-80): 2 of 10

O=NN(CCF)C(=O)NCCO
T/C (dose: 2.5 mg/kg/injection, schedule: Q01DX009 (ip), vehicle: saline): 131 % of control | survivor count (dose: 20.0 mg/kg/injection, schedule: Q01DX009 (ip), vehicle: saline): 8 of 10 on day 9 | survivor count [8]: 0 of 10 on day 9

NC(C(=O)O)c1ccc(CBr)cc1 (centres undefined)
survivor count [2]: 1 of 10

CCCCC(=O)OCC(=O)[C@]1(O)Cc2c(O)c3c(c(O)c2[C@@H](OC2CC(NC(=O)C(F)(F)F)C(O)C(C)O2)C1)C(=O)c1c(OC)cccc1C3=O (some centres undefined)
T/C (dose: 64.0 mg/kg/injection, schedule: Q01DX009 (ip), vehicle: saline with Tween-80): 137 % of control | survivor count (dose: 128.0 mg/kg/injection, schedule: Q01DX009 (ip), vehicle: saline with Tween-80): 10 of 10 | T/C (dose: 256.0 mg/kg/injection, schedule: Q01DX009 (ip), vehicle: Klucel (hydroxypropylcellulose) (HPC)): 136 % of control | survivor count (dose: 256.0 mg/kg/injection, schedule: Q01DX009 (ip), vehicle: saline with Tween-80): 10 of 10

C[n+]1cccc(NC(=O)c2ccc(NC(=O)C34CCC(C(=O)Nc5ccc(C(=O)Nc6ccc[n+](C)c6)cc5)(CC3)CC4)cc2)c1
survivor count (dose: 20.0 mg/kg/injection, schedule: Q01DX009 (ip), vehicle: saline with Tween-80): 8 of 10 | survivor count (dose: 40.0 mg/kg/injection, schedule: Q01DX009 (ip), vehicle: saline with Tween-80): 8 of 10 | survivor count (dose: 80.0 mg/kg/injection, schedule: Q01DX009 (ip), vehicle: saline with Tween-80): 0 of 10 | survivor count (dose: 160.0 mg/kg/injection, schedule: Q01DX009 (ip), vehicle: saline with Tween-80): 0 of 10

S=c1nc[nH]c2nc[nH]c12
survivor count (dose: 60.0 mg/kg/injection, schedule: Q01DX009 (ip), vehicle: Klucel (hydroxypropylcellulose) (HPC)): 10 of 10 | survivor count (dose: 120.0 mg/kg/injection, schedule: Q01DX009 (ip), vehicle: Klucel (hydroxypropylcellulose) (HPC)): 8 of 10 | survivor count (dose: 240.0 mg/kg/injection, schedule: Q01DX009 (ip), vehicle: Klucel (hydroxypropylcellulose) (HPC)): 7 of 10
